Reference: paper PMC4954726

By UniProt entry, the sequences of proteins in these tests, tags left out. Where a name states a change or a piece, a line headed by the entry shows the natural chain unless it says otherwise.
UniProt A8BAR6: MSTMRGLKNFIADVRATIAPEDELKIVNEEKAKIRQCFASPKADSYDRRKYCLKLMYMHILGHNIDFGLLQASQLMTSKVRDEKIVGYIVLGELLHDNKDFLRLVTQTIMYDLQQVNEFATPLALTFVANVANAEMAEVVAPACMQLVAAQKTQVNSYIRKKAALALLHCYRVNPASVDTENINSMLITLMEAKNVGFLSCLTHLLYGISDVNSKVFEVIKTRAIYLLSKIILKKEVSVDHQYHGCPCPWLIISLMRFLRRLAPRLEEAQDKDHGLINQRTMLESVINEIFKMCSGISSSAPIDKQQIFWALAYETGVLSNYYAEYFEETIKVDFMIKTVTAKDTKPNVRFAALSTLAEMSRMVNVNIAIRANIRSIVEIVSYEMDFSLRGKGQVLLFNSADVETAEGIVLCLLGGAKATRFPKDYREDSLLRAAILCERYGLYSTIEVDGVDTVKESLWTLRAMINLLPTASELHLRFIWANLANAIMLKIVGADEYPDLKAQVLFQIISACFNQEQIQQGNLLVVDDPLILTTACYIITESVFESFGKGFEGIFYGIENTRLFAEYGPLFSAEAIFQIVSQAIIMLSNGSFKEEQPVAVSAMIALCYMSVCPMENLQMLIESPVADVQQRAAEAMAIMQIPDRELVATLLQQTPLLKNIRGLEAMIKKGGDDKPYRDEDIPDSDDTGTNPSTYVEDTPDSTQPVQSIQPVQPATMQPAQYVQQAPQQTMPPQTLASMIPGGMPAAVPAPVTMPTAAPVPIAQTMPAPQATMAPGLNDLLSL
UniProt A8B343: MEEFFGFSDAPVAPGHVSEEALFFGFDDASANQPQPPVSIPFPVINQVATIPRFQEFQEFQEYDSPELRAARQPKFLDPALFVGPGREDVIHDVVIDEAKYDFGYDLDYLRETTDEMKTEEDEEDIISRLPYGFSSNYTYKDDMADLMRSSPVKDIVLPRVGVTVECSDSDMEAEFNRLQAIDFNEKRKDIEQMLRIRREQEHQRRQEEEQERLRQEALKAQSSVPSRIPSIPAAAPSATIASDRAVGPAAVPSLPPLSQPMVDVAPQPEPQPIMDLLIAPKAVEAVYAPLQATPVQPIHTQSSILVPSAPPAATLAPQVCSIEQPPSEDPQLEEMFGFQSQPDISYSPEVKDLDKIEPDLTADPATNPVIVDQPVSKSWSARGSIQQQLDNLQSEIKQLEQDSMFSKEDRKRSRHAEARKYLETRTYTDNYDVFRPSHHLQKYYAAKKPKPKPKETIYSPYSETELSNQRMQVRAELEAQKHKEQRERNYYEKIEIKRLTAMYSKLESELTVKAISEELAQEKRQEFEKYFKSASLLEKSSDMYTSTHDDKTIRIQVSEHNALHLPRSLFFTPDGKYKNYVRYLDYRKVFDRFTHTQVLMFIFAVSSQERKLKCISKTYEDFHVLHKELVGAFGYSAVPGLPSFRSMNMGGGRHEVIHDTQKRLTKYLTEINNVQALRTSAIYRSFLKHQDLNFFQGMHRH
UniProt E2RU04: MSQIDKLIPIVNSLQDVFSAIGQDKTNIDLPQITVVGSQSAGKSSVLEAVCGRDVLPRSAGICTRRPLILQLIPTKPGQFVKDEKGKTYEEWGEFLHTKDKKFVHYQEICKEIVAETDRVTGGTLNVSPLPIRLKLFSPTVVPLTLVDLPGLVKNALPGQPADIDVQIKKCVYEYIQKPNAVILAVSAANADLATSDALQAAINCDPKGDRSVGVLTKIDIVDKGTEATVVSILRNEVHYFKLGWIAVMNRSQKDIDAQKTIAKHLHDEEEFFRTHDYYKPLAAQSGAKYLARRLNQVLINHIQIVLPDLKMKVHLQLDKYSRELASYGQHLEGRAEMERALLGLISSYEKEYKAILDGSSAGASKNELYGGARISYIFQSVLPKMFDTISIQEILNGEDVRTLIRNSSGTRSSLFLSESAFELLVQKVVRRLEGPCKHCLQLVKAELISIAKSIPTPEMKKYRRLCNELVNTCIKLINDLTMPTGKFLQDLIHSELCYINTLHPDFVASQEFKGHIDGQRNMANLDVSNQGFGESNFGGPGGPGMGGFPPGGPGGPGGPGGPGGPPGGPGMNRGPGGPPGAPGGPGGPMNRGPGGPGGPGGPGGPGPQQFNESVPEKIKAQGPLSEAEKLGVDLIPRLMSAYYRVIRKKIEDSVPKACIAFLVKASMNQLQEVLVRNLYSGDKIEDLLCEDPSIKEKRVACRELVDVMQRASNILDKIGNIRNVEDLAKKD
UniProt A8B9U8: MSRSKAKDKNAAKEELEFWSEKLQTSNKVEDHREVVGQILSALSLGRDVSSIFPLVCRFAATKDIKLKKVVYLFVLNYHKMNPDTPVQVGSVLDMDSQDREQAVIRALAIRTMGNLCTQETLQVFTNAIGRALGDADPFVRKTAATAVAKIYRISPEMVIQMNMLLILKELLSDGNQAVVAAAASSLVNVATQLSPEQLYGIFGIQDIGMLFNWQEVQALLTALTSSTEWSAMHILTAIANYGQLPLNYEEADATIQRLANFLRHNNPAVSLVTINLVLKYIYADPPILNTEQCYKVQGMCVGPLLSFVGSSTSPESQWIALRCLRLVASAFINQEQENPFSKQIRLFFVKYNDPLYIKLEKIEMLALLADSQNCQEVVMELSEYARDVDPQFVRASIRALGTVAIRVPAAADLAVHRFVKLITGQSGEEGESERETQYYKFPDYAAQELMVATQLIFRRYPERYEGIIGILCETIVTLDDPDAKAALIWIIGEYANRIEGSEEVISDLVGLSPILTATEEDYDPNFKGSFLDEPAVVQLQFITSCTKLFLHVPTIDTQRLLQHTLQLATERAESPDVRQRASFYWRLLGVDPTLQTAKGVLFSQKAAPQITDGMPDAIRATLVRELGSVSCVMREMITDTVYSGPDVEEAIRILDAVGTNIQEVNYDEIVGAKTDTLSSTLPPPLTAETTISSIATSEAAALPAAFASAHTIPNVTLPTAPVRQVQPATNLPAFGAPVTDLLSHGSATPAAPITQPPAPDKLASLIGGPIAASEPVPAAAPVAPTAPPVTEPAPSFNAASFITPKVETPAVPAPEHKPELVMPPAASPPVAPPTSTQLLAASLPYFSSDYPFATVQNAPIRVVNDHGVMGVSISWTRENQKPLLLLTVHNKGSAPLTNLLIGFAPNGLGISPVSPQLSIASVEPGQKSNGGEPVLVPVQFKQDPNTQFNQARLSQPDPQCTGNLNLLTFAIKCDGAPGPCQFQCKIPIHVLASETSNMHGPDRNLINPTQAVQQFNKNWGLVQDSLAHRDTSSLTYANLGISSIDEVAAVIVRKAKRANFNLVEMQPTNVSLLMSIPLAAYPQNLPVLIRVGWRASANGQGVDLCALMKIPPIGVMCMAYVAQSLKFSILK
UniProt A8BHA7: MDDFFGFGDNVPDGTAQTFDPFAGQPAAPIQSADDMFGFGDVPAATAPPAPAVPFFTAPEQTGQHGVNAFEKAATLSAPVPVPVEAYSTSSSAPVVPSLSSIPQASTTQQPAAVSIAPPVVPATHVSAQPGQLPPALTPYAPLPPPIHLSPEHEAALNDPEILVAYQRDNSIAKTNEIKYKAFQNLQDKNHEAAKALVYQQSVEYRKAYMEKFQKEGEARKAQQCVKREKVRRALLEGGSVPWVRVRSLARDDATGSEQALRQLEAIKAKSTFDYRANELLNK
UniProt A8B515: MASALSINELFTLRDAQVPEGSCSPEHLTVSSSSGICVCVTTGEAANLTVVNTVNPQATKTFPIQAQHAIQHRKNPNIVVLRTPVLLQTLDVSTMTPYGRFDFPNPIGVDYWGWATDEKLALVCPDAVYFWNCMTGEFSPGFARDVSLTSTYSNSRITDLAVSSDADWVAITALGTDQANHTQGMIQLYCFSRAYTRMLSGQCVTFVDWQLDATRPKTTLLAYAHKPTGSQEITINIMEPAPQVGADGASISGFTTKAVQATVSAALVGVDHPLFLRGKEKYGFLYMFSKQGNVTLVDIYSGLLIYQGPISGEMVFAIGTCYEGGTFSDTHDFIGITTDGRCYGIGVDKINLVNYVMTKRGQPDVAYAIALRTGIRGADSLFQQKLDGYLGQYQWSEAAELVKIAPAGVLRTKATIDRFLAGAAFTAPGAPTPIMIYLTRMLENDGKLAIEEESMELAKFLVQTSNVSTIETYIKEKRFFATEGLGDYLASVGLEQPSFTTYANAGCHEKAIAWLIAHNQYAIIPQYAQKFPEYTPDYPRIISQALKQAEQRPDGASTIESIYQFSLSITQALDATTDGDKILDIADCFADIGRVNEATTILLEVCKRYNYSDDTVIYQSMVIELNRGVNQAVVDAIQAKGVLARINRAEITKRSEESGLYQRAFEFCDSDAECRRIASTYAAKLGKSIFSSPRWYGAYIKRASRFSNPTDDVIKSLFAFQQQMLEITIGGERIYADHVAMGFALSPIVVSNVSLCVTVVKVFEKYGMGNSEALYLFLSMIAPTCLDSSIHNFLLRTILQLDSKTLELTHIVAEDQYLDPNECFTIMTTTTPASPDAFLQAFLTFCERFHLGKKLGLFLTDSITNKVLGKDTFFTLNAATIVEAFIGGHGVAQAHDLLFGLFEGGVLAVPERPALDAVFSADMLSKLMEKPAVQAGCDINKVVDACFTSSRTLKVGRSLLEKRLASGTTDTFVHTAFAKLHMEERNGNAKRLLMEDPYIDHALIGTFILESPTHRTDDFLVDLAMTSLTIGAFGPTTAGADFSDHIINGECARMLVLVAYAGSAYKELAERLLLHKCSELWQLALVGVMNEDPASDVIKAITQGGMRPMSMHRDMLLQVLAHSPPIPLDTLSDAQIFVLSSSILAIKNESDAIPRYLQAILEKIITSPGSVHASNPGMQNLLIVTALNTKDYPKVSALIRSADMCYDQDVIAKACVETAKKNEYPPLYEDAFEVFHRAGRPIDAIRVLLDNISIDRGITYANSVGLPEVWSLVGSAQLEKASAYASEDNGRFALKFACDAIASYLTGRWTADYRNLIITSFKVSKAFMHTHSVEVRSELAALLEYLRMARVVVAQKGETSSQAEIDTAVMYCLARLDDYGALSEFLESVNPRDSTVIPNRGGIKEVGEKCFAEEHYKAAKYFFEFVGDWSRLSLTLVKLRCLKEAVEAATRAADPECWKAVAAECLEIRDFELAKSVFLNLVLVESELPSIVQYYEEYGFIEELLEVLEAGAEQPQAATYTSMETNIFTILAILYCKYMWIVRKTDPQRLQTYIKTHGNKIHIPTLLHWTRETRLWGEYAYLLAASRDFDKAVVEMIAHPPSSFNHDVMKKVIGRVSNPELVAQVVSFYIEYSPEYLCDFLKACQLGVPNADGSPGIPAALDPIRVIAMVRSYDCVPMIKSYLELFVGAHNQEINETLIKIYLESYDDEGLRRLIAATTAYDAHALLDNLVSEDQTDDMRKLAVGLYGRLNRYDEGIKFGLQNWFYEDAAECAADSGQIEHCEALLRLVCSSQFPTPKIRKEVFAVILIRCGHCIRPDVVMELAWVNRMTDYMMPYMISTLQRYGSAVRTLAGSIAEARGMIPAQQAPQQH
UniProt A8BH24: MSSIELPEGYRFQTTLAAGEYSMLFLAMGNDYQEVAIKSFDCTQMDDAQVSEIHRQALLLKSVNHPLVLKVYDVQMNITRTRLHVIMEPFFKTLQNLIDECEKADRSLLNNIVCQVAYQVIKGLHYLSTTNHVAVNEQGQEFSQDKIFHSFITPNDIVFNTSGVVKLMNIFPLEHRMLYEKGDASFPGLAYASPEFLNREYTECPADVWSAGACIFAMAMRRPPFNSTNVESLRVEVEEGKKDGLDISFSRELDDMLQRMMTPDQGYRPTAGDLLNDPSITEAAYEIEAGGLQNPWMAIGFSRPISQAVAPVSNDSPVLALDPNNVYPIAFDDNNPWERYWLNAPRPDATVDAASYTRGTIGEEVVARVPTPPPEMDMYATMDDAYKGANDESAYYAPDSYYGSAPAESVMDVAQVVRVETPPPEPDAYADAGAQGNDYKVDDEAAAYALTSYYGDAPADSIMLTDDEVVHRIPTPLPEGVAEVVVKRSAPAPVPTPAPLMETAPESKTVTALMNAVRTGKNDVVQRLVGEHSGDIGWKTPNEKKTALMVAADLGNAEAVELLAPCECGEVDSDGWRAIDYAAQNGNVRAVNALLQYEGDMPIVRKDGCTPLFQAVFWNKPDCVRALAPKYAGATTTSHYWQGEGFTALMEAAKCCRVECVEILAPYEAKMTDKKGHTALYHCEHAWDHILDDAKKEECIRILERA
UniProt P51775: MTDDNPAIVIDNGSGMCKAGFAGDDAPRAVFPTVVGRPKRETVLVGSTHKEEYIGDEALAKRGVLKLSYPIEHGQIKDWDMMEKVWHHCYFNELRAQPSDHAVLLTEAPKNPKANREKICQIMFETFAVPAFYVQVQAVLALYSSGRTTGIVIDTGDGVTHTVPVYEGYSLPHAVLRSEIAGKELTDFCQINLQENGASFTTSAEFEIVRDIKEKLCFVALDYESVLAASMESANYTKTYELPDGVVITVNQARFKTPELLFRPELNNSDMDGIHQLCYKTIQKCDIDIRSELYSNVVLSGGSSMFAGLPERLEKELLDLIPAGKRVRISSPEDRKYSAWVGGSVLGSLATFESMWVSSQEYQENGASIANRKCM

Experiments:
[1] = molecular target: Giardia lamblia AP2 alpha subunit (Giardia lamblia WBC6 (ATCC 50803)) (UniProt A8BAR6); assay: affinity purification with mass spectrometry; co-IP with limited cross-linking: 10^9 trophozoites in 0.4mM DSP in PBS, 30 minutes at RT, quenched with glycine, sonicated; soluble fraction with 1% TX-100 on anti-HA agarose beads 2h at 4°C; cross-links reversed with DTT; SDS-PAGE, LC-MS/MS; HA-tagged baits (GlCHC and 8 reverse baits); non-transgenic WB parasites as control
[2] = molecular target: Gl16595, PX domain protein (Giardia lamblia WBC6 (ATCC 50803)) (UniProt A8B344); assay: as above
[3] = molecular target: Gl7723, PX domain protein (Giardia lamblia WBC6 (ATCC 50803)) (UniProt A8B343); assay: as above
[4] = molecular target: Giardia dynamin related protein (Giardia lamblia WBC6 (ATCC 50803)) (UniProt E2RU04); assay: as above
[5] = molecular target: Gl16653, FYVE domain protein (Giardia lamblia WBC6 (ATCC 50803)) (UniProt A8BDZ8); assay: as above
[6] = molecular target: Giardia lamblia AP2 beta subunit (Giardia lamblia WBC6 (ATCC 50803)) (UniProt A8B9U8); assay: as above
[7] = molecular target: Gl4259, putative clathrin light chain (Giardia lamblia WBC6 (ATCC 50803)) (UniProt A8BHA7); assay: as above
[8] = molecular target: Giardia lamblia clathrin heavy chain (Giardia lamblia WBC6 (ATCC 50803)) (UniProt A8B515); assay: as above
[9] = molecular target: Gl15411, predicted metabolically inactive NEK kinase (Giardia lamblia WBC6 (ATCC 50803)) (UniProt A8BH24); assay: as above
[10] = molecular target: Giardia lamblia clathrin heavy chain (Giardia lamblia WBC6 (ATCC 50803)) (UniProt A8B515); assay: condition: only native co-IP, without DSP cross-linking; affinity purification with mass spectrometry; native co-IP (no cross-linker) with GlCHC-HA as bait from transgenic trophozoites; LC-MS/MS, high stringency parameters; untransfected line as control
[11] = molecular target: Giardia lamblia clathrin heavy chain (Giardia lamblia WBC6 (ATCC 50803)) (UniProt A8B515); assay: affinity purification with mass spectrometry; native co-IP (no cross-linker) with GlCHC-HA as bait from transgenic trophozoites; LC-MS/MS, high stringency parameters; untransfected line as control

| Substance | binding [2] | binding [3] | binding [4] | binding [5] | binding [7] | binding [8] | binding [10] | also measured |
| --- | --- | --- | --- | --- | --- | --- | --- | --- |
| Giardia lamblia clathrin heavy chain (from UniProt A8B515) | binds | binds | binds | binds | binds |  |  | binding [1]: binds; binding [6]: binds |
| actin (from UniProt P51775 1-375) |  |  |  |  |  | no binding |  |  |
| Giardia lamblia AP2 alpha subunit (from UniProt A8BAR6) | binds | binds | binds | binds | binds | binds | no binding | binding [9]: binds; binding [6]: binds |
| Gl4259, putative clathrin light chain (from UniProt A8BHA7) |  |  |  |  |  | binds |  | binding [11]: binds |
| Gl16653, FYVE domain protein (from UniProt A8BDZ8) |  |  |  |  |  | binds |  |  |
| Giardia dynamin related protein (from UniProt E2RU04) |  |  |  |  | binds | binds | no binding |  |
| Giardia lamblia AP2 beta subunit (from UniProt A8B9U8) | binds | binds | binds | binds | binds | binds | no binding | binding [9]: binds |
| Gl16595, PX domain protein (from UniProt A8B344) |  |  |  |  |  | binds |  |  |
| Gl7723, PX domain protein (from UniProt A8B343) |  |  |  |  |  | binds |  |  |

Results are given in words; binding and its absence hold for the method and conditions named. In cells and extracts the contact can be indirect. These calls come from enrichment with a bait or labelling near it, and not all partners need be listed. For part of these data: No binding means not detected with the bait.
